Reference: patent US20100137239A1, “GEMCITABINE COMBINATION THERAPY” (GLOUCESTER PHARMACEUTICALS, priority 2006, published 2010)

Legend:
[1] = test system: BxPC-3 Human Pancreatic Tumor Xenograft; experiment: BxPC-3 xenograft tumor growth inhibition study (Example 3); assay type: in vivo, mouse xenograft
Description: (§1) (Madison, Wis.). […] Tumor measurements were converted to cubic millimeter tumor volume using the formula^(5): […] Final mean tumor volume ±SEM for each group was reported; animals experiencing partial or complete tumor regressions or animals experiencing technical or drug-related deaths were censored from these calculations. […] TGI values for each treatment group are reported at study completion; these calculations are based on the final study day. […] If partial tumor regression was reported in multiple animals within one group, a mean value was determined. Individual mice lacking palpable tumors were classified as undergoing complete regression (CR). Animals experiencing partial or complete tumor regressions were censored from TGI calculations. However, data from these animals was included in statistical analysis calculations. In addition, weight data from these animals was included in daily and final group calculations. Tumor Necrosis-Degree of tumor necrosis was rated at each tumor measurement using the following arbitrary index: [table]

[2] = test system: PANC-1 Human Pancreatic Tumor Xenograft; experiment: PANC-1 xenograft tumor growth inhibition study (Example 3); assay type: in vivo, mouse xenograft
Description: as §1

Compound	Tumor Necrosis ([1]; Gemcitabine 40 mg/kg IP Q3Dx4)	Tumor Necrosis ([1]; Gemcitabine 80 mg/kg IP Q3Dx4)	Tumor Necrosis ([2]; Gemcitabine 40 mg/kg IP Q3Dx4)	Tumor Necrosis ([2]; Gemcitabine 80 mg/kg IP Q3Dx4)	Tumor Necrosis ([1]; FK228 2.5 mg/kg IV Q4Dx3)	Tumor Necrosis ([1]; FK228 5 mg/kg IV Q4Dx3)	Tumor Necrosis ([2]; FK228 2.5 mg/kg IV Q4Dx3)	Tumor Necrosis ([2]; FK228 5 mg/kg IV Q4Dx3)
Nc1ccn([C@@H]2O[C@H](CO)[C@@H](O)C2(F)F)c(=O)n1 [Gemcitabine, gemcitabine]	1/9 animals reported severe tumor necrosis	1/9 animals reported mild tumor necrosis	1/9 animals reported mild tumor necrosis and 4/9 reported moderate necrosis	1/9 animals reported slight tumor necrosis, 2/9 reported mild tumor necrosis, and 1/9 reported moderate necrosis	–	–	–	–
C/C=C1\NC(=O)[C@H]2CSSCC/C=C/[C@H](CC(=O)N[C@H](C(C)C)C(=O)N2)OC(=O)[C@H](C(C)C)NC1=O [FK228, romidepsin]	–	–	–	–	2/9 animals reported mild tumor necrosis	2/9 animals reported mild tumor necrosis	1/9 animals reported slight tumor necrosis, 1/9 reported mild tumor necrosis, 2/9 reported moderate necrosis, and 1/9 reported severe necrosis	2/9 animals reported slight tumor necrosis, and 1/9 reported moderate necrosis
